Assay results reported in PubChem BioAssay AID493027 (The Scripps Research Institute Molecular Screening Center, 2011).
Among all 2,000 compounds or so, about 45 (2%) were called active.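 How the source made its calls: active means inhibition above the screen-wide mean inhibition plus 3 SD (cut at about 44% in these data); inactive means the rest.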 Some of the results follow.

Protein sequences, listed by entry. Tags and fused reporters are not part of them. Lines headed by an entry give the natural chain unless they say otherwise; changes in a name come on top.
UniProt O60240: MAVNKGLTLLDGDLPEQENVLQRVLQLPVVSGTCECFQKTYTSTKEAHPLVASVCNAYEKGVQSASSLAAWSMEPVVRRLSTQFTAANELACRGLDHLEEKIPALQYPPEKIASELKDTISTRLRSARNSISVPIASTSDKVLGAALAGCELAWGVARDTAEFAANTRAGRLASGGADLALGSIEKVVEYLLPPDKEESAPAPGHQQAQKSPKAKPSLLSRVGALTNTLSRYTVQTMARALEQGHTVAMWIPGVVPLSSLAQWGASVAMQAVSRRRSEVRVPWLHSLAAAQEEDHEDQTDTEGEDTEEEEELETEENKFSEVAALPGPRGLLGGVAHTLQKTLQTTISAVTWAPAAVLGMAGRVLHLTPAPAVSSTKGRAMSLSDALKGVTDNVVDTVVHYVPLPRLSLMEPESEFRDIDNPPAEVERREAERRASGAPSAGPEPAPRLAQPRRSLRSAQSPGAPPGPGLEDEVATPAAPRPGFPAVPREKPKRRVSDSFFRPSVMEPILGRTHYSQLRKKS
UniProt Q8WTS1: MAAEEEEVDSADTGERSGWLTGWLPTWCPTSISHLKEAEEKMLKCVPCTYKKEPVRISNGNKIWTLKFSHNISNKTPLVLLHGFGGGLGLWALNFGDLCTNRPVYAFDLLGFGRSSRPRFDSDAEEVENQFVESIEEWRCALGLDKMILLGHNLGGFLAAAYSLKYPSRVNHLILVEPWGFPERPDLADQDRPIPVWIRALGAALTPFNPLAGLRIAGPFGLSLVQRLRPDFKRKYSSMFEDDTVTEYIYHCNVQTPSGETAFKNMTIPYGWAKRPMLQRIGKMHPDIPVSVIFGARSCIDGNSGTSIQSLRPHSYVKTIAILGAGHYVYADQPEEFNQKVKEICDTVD

The molecules below were run against Perilipin-1 (Homo sapiens) + 1-acylglycerol-3-phosphate O-acyltransferase ABHD5 (Homo sapiens) (UniProt O60240+Q8WTS1) (assay: blockers of ABHD5 binding to perilipin-1 – cell lysate, split luciferase complementation, luminescence, NIH validation set, pilot screen (AID 493027;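 further: 0% = DMSO wells with the 100% control not disclosed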)). Settings: split G. princeps luciferase complementation, 4 h; at 7.9 µM, stronger effect = higher value.

Row | SMILES | inhibition
1 | CC(C)C[C@H](NC(=O)NC(C)C)C(=O)O | inactive: -4.72%
2 | CN(C)CCC(c1ccc(Cl)cc1)c1ccccn1 (stereo not drawn) | inactive: 2.13%
3 | OCC(O)CN1CCN(c2ccccc2)CC1 (stereo not drawn) | inactive: -1.28%
4 | CCOC(=O)c1ccccc1NC(=O)c1ccc(F)cc1 | inactive: -4.45%
5 | O=C(Cc1cccc2ccccc12)N1CC[C@@]2(O)CCCC[C@H]2C1 | inactive: -2.39%
6 | CC1(C)CC(=O)C(C(=O)CCCCC(=O)C2C(=O)CC(C)(C)CC2=O)C(=O)C1 | inactive: -7.35%
7 | CCOC(=O)C1C(=O)OC(C)(C)C1C(C)C(=O)c1ccc(C)cc1 (stereo not drawn) | inactive: 2.95%
8 | Cc1ccc(S(=O)(=O)N[C@@H](C)C(=O)N2CCC(C(=O)N3CCC[C@H]3C(=O)O)CC2)cc1 | inactive: -8.3%
9 | CC(C)(C)C(=O)NC(=S)Nc1sc2c(c1C(N)=O)CCC2 | inactive: 1.49%
10 | COC(=O)C1=C(C)N(Cc2ccco2)C(=O)/C1=C\c1ccc([N+](=O)[O-])cc1 | active: 86%
11 | Cc1cccc2c(C(=O)O)cc(-c3cccnc3)nc12 | inactive: 3.44%
12 | O=C(O)CCCCCNC(=O)Nc1ccc2c(c1)OCCO2 | inactive: 1.82%
13 | O=C(CC(NC(=O)OCc1ccccc1)C(=O)O)OCc1ccccc1 (stereo not drawn) | inactive: -0.68%
14 | COc1ccc(C2NC(=O)c3ccccc3O2)c(OC)c1OC (stereo not drawn) | inactive: 1.11%
15 | O=C1CCCN1C(=O)CCC(=O)N1CCCC1=O | inactive: 3.93%
16 | CCN(CC)C(=O)N1CCN(C)CC1 | inactive: 41.1%
17 | CC(C)COc1ccc(Cc2cnc(N)nc2N)cc1 | inactive: -3.45%
18 | Nc1ccc(N=Nc2ccccc2)c(N)n1 | inactive: 3.21%
19 | CC12CCC(C(=O)N(CCC#N)CCC#N)(CC1=O)C2(C)C (stereo not drawn) | inactive: -7.25%
20 | CCN(CCCc1ccccc1)CCCc1ccccc1 | inactive: 33.9%
21 | COc1ccc(C2c3c(n[nH]c3C)CC(C)(O)C2C(C)=O)cc1OC (stereo not drawn) | inactive: -4.9%
22 | CC[C@]1(O)C[C@@H]2CN(CCc3c([nH]c4ccccc34)[C@@](C(=O)OC)(c3cc4c(cc3OC)N(C)[C@H]3[C@@](O)(C(=O)OC)[C@H](OC(C)=O)[C@]5(CC)C=CCN6CC[C@]43[C@@H]65)C2)C1 | inactive: -0.7%
23 | CN(C)CCOC(c1ccccc1)c1ccccc1 (tested in a mixture with another compound) | inactive: -0.63%
24 | O=C(O)CCCCCCNC(=O)c1cncc(O)c1 | inactive: -10.4%
25 | CC1(C)C(=O)OC(C(=O)c2ccc(Cl)cc2)C(C)(C)C1=O (stereo not drawn) | inactive: -6.07%

Rewritten as a markdown table: part of the list above.

| Row | SMILES | inhibition |
| --- | --- | --- |
| 20 | CCN(CCCc1ccccc1)CCCc1ccccc1 | inactive: 33.9% |
| 21 | COc1ccc(C2c3c(n[nH]c3C)CC(C)(O)C2C(C)=O)cc1OC (stereo not drawn) | inactive: -4.9% |
| 22 | CC[C@]1(O)C[C@@H]2CN(CCc3c([nH]c4ccccc34)[C@@](C(=O)OC)(c3cc4c(cc3OC)N(C)[C@H]3[C@@](O)(C(=O)OC)[C@H](OC(C)=O)[C@]5(CC)C=CCN6CC[C@]43[C@@H]65)C2)C1 | inactive: -0.7% |

Carrying on:

Row | SMILES | inhibition
26 | CN(C)CCC(c1ccccc1)c1ccccn1 (stereo not drawn) | inactive: -3.32%
27 | Nc1ccc2nc(Cc3ccccc3)[nH]c2c1 | inactive: -5.86%
28 | N/C(=N\OC(=O)/C=C/c1ccccc1)c1ccc(Br)cc1 | inactive: -13%
29 | Cc1ccccc1OCC(O)CN1CCN(C)CC1 (stereo not drawn) | inactive: -6.82%
30 | CC(=O)Nc1ccccc1C(=O)C(=O)Nc1ccccc1 | inactive: -1.79%
31 | C=CCc1ccccc1OCC(O)CNC(C)C (stereo not drawn) | inactive: 1.47%
32 | O=C(Cc1ccccc1)NNC(=O)Cc1ccccc1 | inactive: -0.42%
33 | CCCCOc1ccc(CC(=O)NO)cc1 | inactive: 33.5%
34 | CC(=O)OC(C)C[N+](C)(C)C (stereo not drawn) | inactive: -14.2%
35 | CCOCCCNCc1cn(-c2ccc(F)cc2F)nc1-c1ccccc1C | inactive: -4%
36 | CCOC(=O)c1cccc(P(C)(C)=O)c1 | inactive: -5.57%
37 | C=CC1=C(C(=O)O)N2C(=O)C(NC(=O)Cc3ccccc3)C2SC1 (stereo not drawn) | inactive: 5.17%
38 | CC1(C)Cc2ccccc2-c2nc(-c3ccccc3)oc(=O)c21 | inactive: -16.1%
39 | COc1c(C=O)c(CCN(C)C(=O)c2ccc(F)cc2)cc2c1OCO2 | inactive: 1.06%
40 | COc1cc(C2C(C(=O)c3ccc(C)o3)=C(O)C(=O)N2Cc2cccnc2)ccc1O (stereo not drawn) | inactive: -11.2%
41 | CC(=O)Oc1c2occc2cc2ccc(=O)oc12 | inactive: -1.37%
42 | O=c1nc2n(c3c1oc1ccccc13)Cc1ccccc1-2 | inactive: -1.93%
43 | COc1ccc(CCNC(=S)NC(=O)/C=C/c2ccc(C)cc2)cc1OC | inactive: 8.05%
44 | COc1ccccc1C(CC(=O)Nc1ccccc1C)c1ccc(OC(C)C)cc1 (stereo not drawn) | inactive: 0.34%
45 | OCCC1CN(Cc2ccccc2-c2ccco2)CCN1C1CCCC1 (stereo not drawn) | inactive: -3.88%
46 | Cc1ccc2c(c1)C(O)(c1c(C)[nH]c3ccccc13)C(=O)N2 (stereo not drawn) | inactive: -5.54%
47 | Cc1c(OC(=O)CNC(=O)OC(C)(C)C)ccc2c3c(c(=O)oc12)CCC3 | inactive: 13.2%
48 | CCCCC[C@H](O)/C=C/[C@@H]1[C@@H](CCCCCCC(=O)O)[C@@H](O)C[C@H]1O | inactive: 7.47%
49 | O=C(/C=C/Sc1ccccc1)c1ccccc1 | active: 81.5%
50 | C=CCC1(O)C(=O)N2C(=C1C(=O)N1CCOCC1)c1ccccc1CC2(C)C (stereo not drawn) | inactive: 1.14%

Row | SMILES | inhibition
51 | COC(=O)CN1CC(=O)N(c2ccccc2)C1=S | inactive: -5.19%
52 | NC(=O)c1cccnc1 | inactive: -4.63%
53 | CO/N=C(\C(=O)N[C@@H]1C(=O)N2C(C(=O)O)=C(COC(C)=O)CS[C@H]12)c1csc(N)n1 (stereo in doubt) | inactive: 1.58%
54 | O=C(O)C1CSC(c2ccc3c(c2)OCO3)N1 (stereo not drawn) | inactive: -0.99%
55 | CC12CCCCN1CCCc1c2[nH]c2ccccc12 (stereo not drawn) | inactive: 3.38%
56 | Cn1c(=O)c2c(ncn2CC(O)CO)n(C)c1=O (stereo not drawn) | inactive: -12.2%
57 | COc1cccc(N2C(=O)CC(c3c[nH]c4ccccc34)C2=O)c1 (stereo not drawn) | inactive: 0.77%
58 | N=C1C(c2ccccc2)=C(O)CN1CCCO | inactive: -11.9%
59 | COc1ccccc1NC(=O)N1CCc2[nH]c3ccc(Cl)cc3c2C1 | inactive: 24.1%
60 | O=C1Nc2ccc3sc4ccccc4c3c2C1=O | inactive: 1.27%
61 | CCC(C)NCCOc1ccccc1C (stereo not drawn) | inactive: -6.76%
62 | COc1cc2c(cc1O)CCN(C(=O)c1ccco1)C2C (stereo not drawn) | inactive: -3.54%
63 | COc1ccc(/C=C2\CC/C(=C\c3ccc(OC)c(OC)c3)C2=O)cc1OC | active: 59.1%
64 | CC(C)c1cc(=O)oc2c3c4c(cc12)CCCN4CCC3 | inactive: -2.15%
65 | CSCC[C@H](NC(=O)OC(C)(C)C)C(=O)N1CCC(C(=O)N[C@@H](C)C(=O)O)CC1 | inactive: -2.64%
66 | Cc1nc2c(c3c1[nH]c1ccccc13)C(=O)CC(C)(C)C2 | inactive: -1.29%
67 | CN(C)c1cc(NC(=O)CN2CCOCC2)c2ccccc2n1 | inactive: -3.8%
68 | CC(C)(C)OC(=O)COc1cc(OCC(=O)OC(C)(C)C)c2c(=O)cc(-c3ccccc3)oc2c1 | inactive: 26.2%
69 | CC(C)=CCCC1=CCC2C(=O)NNC(=O)C2C1 (stereo not drawn) | inactive: 4.31%
70 | COc1ccc(C(=O)Nc2nc3ccccc3c(=O)[nH]2)cc1 | inactive: -4.92%
71 | O=C(COc1cc(O)c2c(=O)c3ccccc3oc2c1)OCc1ccccc1 | inactive: -1.69%
72 | Cc1ccc(C2=NOC(=O)/C2=C\C=C\c2ccccc2)cc1 | active: 95.6%
73 | Cn1cc(CN2CCC(C(=O)N3CCCCC3)CC2)c(-c2ccccc2F)n1 | inactive: -6.43%
74 | CCOc1ccc(CC2CCC(=O)NC2=O)cc1 (stereo not drawn) | inactive: 3.55%
75 | COc1ccc(NC(=O)C2OC3OC(C)(C)OC3C3OC(C)(C)OC23)cc1 (stereo not drawn) | inactive: 0.39%

Records 61 through 62 from above:
Row | SMILES | inhibition
61 | CCC(C)NCCOc1ccccc1C (stereo not drawn) | inactive: -6.76%
62 | COc1cc2c(cc1O)CCN(C(=O)c1ccco1)C2C (stereo not drawn) | inactive: -3.54%

Further entries:

Row | SMILES | inhibition
76 | CC(=O)Oc1ccc(C(=O)O)cc1OC(C)=O | inactive: 2.2%
77 | CCOC(=O)C1=C(C)N[C@@]2(O)c3ccccc3C(=O)[C@@]12O | inactive: -36.6%
78 | O=c1c2ccccc2nc2n1CCCN2 | inactive: -2.95%
79 | O=C(O)c1cc2cc(F)ccc2[nH]1 | inactive: 0.61%
80 | COc1ccc(C(=O)Nc2ccccc2C(=O)NC(Cc2c[nH]c3ccccc23)C(=O)O)cc1 (stereo not drawn) | inactive: -1.25%
81 | Cc1cccc(N(C)C(=S)Oc2ccc3ccccc3c2)c1 | inactive: -11.3%
82 | CCCCc1oc2ccccc2c1C(=O)c1cc(I)c(OCCN(CC)CC)c(I)c1 | inactive: -6.98%
83 | O=C(O)c1cccnc1 | inactive: -5.93%
84 | COCCCN1C(=O)/C(=C\c2cccs2)C(C(=O)OC)=C1C | inactive: 3.99%
85 | CN1C(=O)NC(c2ccc(O)cc2)C2=C1CN(c1cccc3ccccc13)C2=O (stereo not drawn) | inactive: -12.2%
86 | Cc1ccccc1N1C(N)=NC(N)=NC1(C)C | inactive: -3.58%
87 | CC12CCC(C(=O)NCc3ccc4c(c3)OCO4)(CC1=O)C2(C)C (stereo not drawn) | inactive: -2.29%
88 | CC(=O)Nc1ccc(CN2CCN(C3CCCCC3)C(CCO)C2)cc1 (stereo not drawn) | inactive: -3.02%
89 | CC1(C)O[C@@H]2C[C@H]3[C@@H]4C[C@H](F)C5=CC(=O)CC[C@]5(C)[C@H]4[C@@H](O)C[C@]3(C)[C@]2(C(=O)CO)O1 | inactive: -12.2%
90 | COc1ccccc1OS(=O)(=O)c1ccc(NC(C)=O)cc1 | inactive: -6.1%
91 | CC12CCC(C(=O)N3CCCCC3)([C@H](Br)C1=O)C2(C)C (stereo partly drawn) | inactive: -2.39%
92 | COc1ccc(C2C3C(C)=NN=C3CC(C)(O)C2C(C)=O)cc1 (stereo not drawn) | inactive: -2.63%
93 | COc1cccc(OCc2nnc(-c3cccs3)o2)c1 | inactive: 4.79%
94 | NNC(=O)c1ccncc1 | inactive: -1.64%
95 | COc1cc(NC(=S)NC(=O)c2cccs2)ccc1NC(=O)C(C)C | inactive: -1.49%
96 | COc1ccc(OC)c(C(=O)c2coc3ccc(O)cc23)c1 | inactive: 0.23%
97 | C[C@]12CC[C@@H]3c4ccc(O)cc4C(=O)C[C@H]3[C@@H]1CC[C@@H]2O | inactive: 15.1%
98 | CC(=O)C1=C(O)C(=O)OC1c1ccc(C)cc1 (stereo not drawn) | inactive: -3.16%
